# About 6,100 (1.1%) of roughly 580,000 compounds were called active. Inconclusive means that the source gave no clear call. Such entries were picked first, then a sample of the others. Calls come from the whole dose curve; as a rule, active = well fitted inhibition curve with a large enough effect; inconclusive = small, poorly fitted or top-dose-only effect, or another doubt; inactive = no such curve, though single readings can be large or run the other way. A potency beside an inconclusive call is a rough fit, not a confirmed value.
# The chains behind the UniProt entries cited, without tags or fusion partners. Where a name states a change or a piece, a line headed by the entry shows the natural chain unless it says otherwise.
# UniProt P18054: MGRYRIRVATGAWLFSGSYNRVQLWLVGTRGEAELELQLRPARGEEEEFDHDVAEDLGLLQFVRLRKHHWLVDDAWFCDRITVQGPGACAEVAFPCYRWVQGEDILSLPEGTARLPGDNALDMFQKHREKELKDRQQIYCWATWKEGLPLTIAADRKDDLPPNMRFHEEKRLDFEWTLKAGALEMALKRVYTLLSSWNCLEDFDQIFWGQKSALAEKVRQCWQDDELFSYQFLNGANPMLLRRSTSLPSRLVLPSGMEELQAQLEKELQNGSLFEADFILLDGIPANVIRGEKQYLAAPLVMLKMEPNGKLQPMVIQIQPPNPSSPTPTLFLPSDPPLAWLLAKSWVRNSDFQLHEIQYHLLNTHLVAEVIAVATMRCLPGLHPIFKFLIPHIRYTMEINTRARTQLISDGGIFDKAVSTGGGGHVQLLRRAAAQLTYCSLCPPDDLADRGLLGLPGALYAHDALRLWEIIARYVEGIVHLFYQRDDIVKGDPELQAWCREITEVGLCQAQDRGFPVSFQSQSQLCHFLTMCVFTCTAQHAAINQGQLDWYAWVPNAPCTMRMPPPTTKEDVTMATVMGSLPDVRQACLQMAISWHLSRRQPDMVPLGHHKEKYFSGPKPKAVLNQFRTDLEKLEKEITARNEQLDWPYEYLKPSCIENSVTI
# Target: Polyunsaturated fatty acid lipoxygenase ALOX12 (Homo sapiens) (UniProt P18054)
# Experiment: Primary qHTS assay for inhibitors of human arachidonate 12S-lipoxygenase (ALOX12): Round 2
# Conditions: purified 12hLO, xylenol orange hydroperoxide absorbance; activity change, negative = inhibition: at 108 µM (top of the series) unless noted
# Summary of the method: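 Purified human 12hLO (150 nM final) in 25 mM Hepes, 0.01% Triton X-100, pH 7.0 was preincubated 15 min at room temperature with compound. Then 40 uM arachidonic acid was added, 30 min. Hydroperoxide was read by Fe-XO absorbance ratio 573/405 nm.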
# % is set by controls: 0 for no effect and ±100 for the full control effect; potency is the fitted concentration of half-maximal effect.
SMILES,"activity change, negative = inhibition",Potency
CCN(CC)C(=O)c1cccc(-c2ccc(OCCn3ccnc3)cc2)c1,inactive: 56.1%,
O=C(Nc1ccc2c(c1)OCCO2)C(CCc1ccccc1)N1CCN(c2ccc(F)cc2)CC1 (stereo not drawn),,"inconclusive: 89.1 µM [inhibitor, partial curve, poor fit]"
O=C(CN1C(=O)NC2(CCCC2)C1=O)OCCOc1ccccc1,,"inconclusive: 31.6 µM [inhibitor, single point]"
COc1cc(C(=O)Nc2ccc(C(=O)c3cccs3)cc2)cc(OC)c1OC,,"inconclusive: 44.7 µM [inhibitor, single point]"
Cn1c(=O)c2c(nc(Cl)n2Cc2nc(-c3ccc(F)cc3)no2)n(C)c1=O,,"inconclusive: 44.7 µM [inhibitor, partial curve, poor fit]"
Cc1cccc(NC(=O)/C(C#N)=C/c2cn(CC(=O)NCc3ccco3)c3ccccc23)c1,,"inconclusive: 63.1 µM [inhibitor, partial curve, poor fit]"
CCCCNC(=S)Nc1ccc(F)cc1,inactive: 0%,
CCCCc1ccc(NC(=S)NCCc2ccc(Cl)cc2)cc1,,active: 31.6 µM
CC(O)CNc1nc2c(c(=O)n(C)c(=O)n2C)n1Cc1cccc(Br)c1 (stereo not drawn),,inactive
CCN(CC)CCNC(=O)c1ccc(NC(=O)c2cccc(S(=O)(=O)Nc3ccc(C)cc3)c2)cc1,,"inconclusive: 50.1 µM [inhibitor, partial curve, poor fit]"
O=C(O)c1ccc(NC2=C/C(=N/S(=O)(=O)c3cccs3)c3ccccc3C2=O)cc1,,"inconclusive: 50.1 µM [inhibitor, partial curve, poor fit]"
COc1ccc(-c2cc(C(=O)NC(Cc3cc4ccccc4[nH]3)C(=O)O)c(C)o2)cc1OC (stereo not drawn),,"inconclusive: 44.7 µM [inhibitor, partial curve, poor fit]"
Cc1ccc(Cn2c(SCC(C)C)nc3c2c(=O)[nH]c(=O)n3C)cc1,,"inconclusive: 35.5 µM [inhibitor, partial curve, poor fit]"
Cc1ccc(C2C(C(=O)c3sc(C)nc3C)=C(O)C(=O)N2CCN2CCOCC2)o1 (stereo not drawn),,"inconclusive: 2.51 µM [inhibitor, full curve, poor fit]"
CC1=C[C@@H](CNC(=O)CC(C)(C)C)[C@H](C(C)C)C[C@H]1CC(=O)O,,"inconclusive: 100 µM [inhibitor, partial curve, poor fit]"
Cc1cccc(CCNC(=O)CCc2nc(C3CCCN3S(C)(=O)=O)no2)c1 (stereo not drawn),,"inconclusive: 56.2 µM [inhibitor, single point]"
COc1ccc2nc(N3CCCCC3)c(/C=C3\SC(=S)NC3=O)cc2c1,inactive: 14.1%,
COc1ccccc1NS(=O)(=O)c1ccc2oc(SCC(C)=O)nc2c1,inactive: 11.5%,
N#Cc1ccc(-c2csc(NC(=O)C3CC3)n2)cc1,inconclusive: -32.8% [inhibitor],
O=C(Nc1nc(-c2ccccn2)cs1)c1ccccc1-n1cnnn1,,"inconclusive: 39.8 µM [inhibitor, partial curve, poor fit]"
Cc1ccc(S(=O)(=O)NCC(=O)N/N=C/c2ccc(Cl)cc2Cl)cc1,,"inconclusive: 50.1 µM [inhibitor, partial curve, poor fit]"

SMILES,"activity change, negative = inhibition",Potency
COc1ccc(OC)c(NC(=O)Cn2ccc3ccccc32)c1,,"inconclusive: 8.91 µM [inhibitor, partial curve, poor fit]"
Cc1ccc(S(=O)(=O)N(C)c2ccc(OCC(=O)NC3=NCCS3)cc2)cc1,,"inconclusive: 100 µM [inhibitor, single point]"
Cc1ccc(CNC(=O)CN2C(=O)NC3(CCC(C)CC3)C2=O)cc1 (stereo not drawn),,"inconclusive: 89.1 µM [inhibitor, single point]"
COc1ccc(/C=N/Nc2nncc3ccccc23)cc1,,"inconclusive: 44.7 µM [inhibitor, partial curve, poor fit]"
Cn1ccc(C(=O)NC(=S)N2CCSCC2)n1,,"inconclusive: 3.55 µM [inhibitor, full curve, poor fit]"
COc1ccc2c(CCNC(=O)CSc3nc(Cl)nc4nc[nH]c34)c[nH]c2c1,inactive: -8.89%,
O=C(Cn1nc(CNc2ccc(Br)cc2)[n+]2c1CCCCC2)c1ccc([N+](=O)[O-])cc1,,"inconclusive: 50.1 µM [inhibitor, partial curve, poor fit]"
COc1ccc([C@H]2N[C@]3(CCCN(Cc4ccc(Br)cc4)C3=O)[C@H]3C(=O)N(C)C(=O)[C@@H]23)cc1,,"inconclusive: 8.91 µM [inhibitor, full curve, poor fit]"
Cc1nn(C)c(C)c1CN(C)S(=O)(=O)c1ccc2ccccc2c1,inactive: -1.3%,
N/C(Cc1cccc2ccccc12)=N\OC(=O)c1ccc(Br)o1,,"inconclusive: 50.1 µM [inhibitor, partial curve, poor fit]"
O=C(Oc1ccccc1C(=O)N1CCOCC1)c1cccc(Br)c1,,"inconclusive: 0.199 µM [inhibitor, full curve, poor fit]"
COC(Cc1ccccc1N1CCCC1=O)OC,inactive: -2.01%,
Cc1[nH]c(=O)[nH]c(=O)c1S(=O)(=O)N1CCC(C(=O)NC(C)c2ccccc2)CC1 (stereo not drawn),inactive: -5.28%,
COc1ccccc1CCNC(=O)C(=O)NCC(c1ccco1)S(=O)(=O)c1cccs1 (stereo not drawn),inactive: 0.988%,
Cc1cccc(C(=O)NCC(c2cccs2)S(=O)(=O)c2cccs2)c1 (stereo not drawn),inactive: -20.6%,
COc1ccc(/C=C/C(=O)NNc2c(F)c(F)cc(F)c2F)cc1OC,,"inconclusive: 44.7 µM [inhibitor, partial curve, poor fit]"
Cc1ccc(S(=O)(=O)N2CCN(C(=O)N3CCOCC3)C2c2ccc(N(C)C)cc2)cc1 (stereo not drawn),,"inconclusive: 126 µM [inhibitor, single point]"
COc1ccc(S(=O)(=O)N(C(=O)C(C)C)c2ccc3oc(=O)sc3c2)cc1,,"inconclusive: 7.94 µM [inhibitor, full curve]"
O=C(C[C@@H]1C/C=C\C[C@@H](NC(=O)OCC2c3ccccc3-c3ccccc32)C(=O)OC[C@@H](Cc2ccccc2)NC1=O)NCCO,,"inconclusive: 39.8 µM [inhibitor, partial curve, poor fit]"
CCCCNC(=O)c1onc(CSc2cc(C)cc(C)c2)c1C(=O)O,,"inconclusive: 39.8 µM [inhibitor, partial curve, poor fit]"
CCN1CCN(S(=O)(=O)c2ccc(Cl)c(C(=O)N(C)Cc3cccc(Cl)c3Cl)c2)CC1,,"inconclusive: 8.91 µM [inhibitor, full curve, poor fit]"

SMILES,"activity change, negative = inhibition",Potency
Oc1ccc2ccccc2c1CNc1ccccn1,,active: 35.5 µM
NC(=O)c1ccsc1NC(=O)COC(=O)COc1ccc2c(c1)CCC2,,"inconclusive: 70.8 µM [inhibitor, partial curve, poor fit]"
CNC(=O)CCn1ncc2cc(OC3CCc4cccc(-c5ccc(O)c(F)c5)c43)ccc21 (stereo not drawn),,active: 50.1 µM
COc1ccc(Cl)c(Cn2c(NCCCN(C)C)nc3c2c(=O)n(C)c(=O)n3C)c1,,"inconclusive: 5.01 µM [inhibitor, full curve, poor fit]"
CCOC(=O)C(=O)NCC(c1cccs1)S(=O)(=O)c1ccc(C)cc1 (stereo not drawn),,"inconclusive: 89.1 µM [inhibitor, partial curve, poor fit]"
Cc1ccc2nc(C3CCCN(CC4CCCC4)C3)[nH]c(=O)c2c1 (stereo not drawn),,"inconclusive: 11.2 µM [inhibitor, full curve]"
Cc1c(C(=O)N(Cc2ccc(N(C)C)cc2)CC2CCCO2)oc2ccccc12 (stereo not drawn),,inactive
CC[C@@H]1CC=C[C@H]2[C@H]1C(=O)N(Cc1ccccc1)[C@H]2c1ccc(OC)c(Cl)c1,,"inconclusive: 89.1 µM [inhibitor, single point]"
CCn1c(/C=C/N(C(C)=O)c2ccccc2)[n+](CC)c2ccc(Cl)cc21,,"inconclusive: 79.4 µM [inhibitor, partial curve, poor fit]"
C#CCOc1ccc2ccccc2c1/C=C(\C#N)c1ccc(Cl)cc1,,"inconclusive: 28.2 µM [inhibitor, partial curve, poor fit]"
CCOC(=O)C(Cc1ccccc1)(Nc1ccccc1)C(O)c1ccc([N+](=O)[O-])cc1 (stereo not drawn),,"inconclusive: 28.2 µM [inhibitor, partial curve, poor fit]"
CCCCN1CCc2[nH]cnc2C1c1cc(C)ccc1F (stereo not drawn),inactive: 11%,
COC(=O)N1CCC[C@@]2(CCN(C(c3ccccc3)c3ccccc3)C2)C1,,"inconclusive: 31.6 µM [inhibitor, single point]"
CC(C)CNC(=O)c1[nH]c(C(F)(F)F)nc1-c1ccccc1,,"inconclusive: 2.24 µM [inhibitor, full curve, poor fit]"
CCCSc1ncc(Cl)c(C(=O)Nc2ccc(S(=O)(=O)N3CCCC(C)C3)cc2)n1 (stereo not drawn),,"inconclusive: 224 µM [inhibitor, partial curve, poor fit]"
Cc1onc(NC(=O)c2ccc([N+](=O)[O-])o2)c1Br,,"inconclusive: 100 µM [inhibitor, partial curve, poor fit]"
CCNc1nc(N)nc(Cl)n1,inactive: 1.85%,
COc1ccc(-c2ccc(CN3C(C(C)C)C(=O)N(Cc4cn(CCC5OCCCO5)nn4)CCS3(=O)=O)cc2)cn1 (stereo not drawn),,"inconclusive: 100 µM [inhibitor, single point]"
Cc1c(Cl)cccc1NC(=O)NCc1ccccn1,inactive: 10.9%,
CCOc1ccccc1CN1CCN(Cc2cccc3nonc23)CC1CCO (stereo not drawn),inactive: 6.79%,
CN(C)CCN1CCN(C2CN(Cc3cn(Cc4cccc(Cl)c4)nn3)S(=O)(=O)C2)CC1 (stereo not drawn),,active: 7.94 µM

# A draw from above in order of SMILES length, ascending:
SMILES,"activity change, negative = inhibition",Potency
COc1ccc(/C=C/C(=O)NNc2c(F)c(F)cc(F)c2F)cc1OC,,"inconclusive: 44.7 µM [inhibitor, partial curve, poor fit]"
COc1ccc(S(=O)(=O)N(C(=O)C(C)C)c2ccc3oc(=O)sc3c2)cc1,,"inconclusive: 7.94 µM [inhibitor, full curve]"
Cc1ccc(C2C(C(=O)c3sc(C)nc3C)=C(O)C(=O)N2CCN2CCOCC2)o1 (stereo not drawn),,"inconclusive: 2.51 µM [inhibitor, full curve, poor fit]"

# — PubChem BioAssay AID1671190 (National Center for Advancing Translational Sciences (NCATS), 2021)
